Reference: PubChem BioAssay AID504444 (National Center for Advancing Translational Sciences (NCATS), 2011)
Screen size: about 360,000 compounds; about 7,500 (2.1%) were called active. The shares of active, inactive and inconclusive entries below differ from those in the screen. The call rests on the fitted dose curve; in most records, active means well fitted inhibition curve with a large enough effect; inconclusive means small, poorly fitted or top-dose-only effect, or effect the other way; inactive means flat fitted curve, though single readings scatter. Where the call is inconclusive, the potency comes from a doubtful curve fit.

Assay: Nrf2 qHTS screen for inhibitors; further: nearly all actives have a fitted effect of over 60% in size
Conditions: A549 ARE-Fluc reporter, luciferase luminescence, 18-24 h; activity change, negative = inhibition: at 46 µM (top of the series)
Method in brief: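 Quantitative HTS in A549 cells stably bearing an antioxidant response element-firefly luciferase construct. Inhibition of Nrf2-driven transcription was scored by luminescence after 18-24 h of compound exposure at 37 °C.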
On the % scale 0 is the no-effect control and ±100 the full control effect; potency means the concentration at half of the fitted maximal effect.

| SMILES | Potency | activity change, negative = inhibition |
| --- | --- | --- |
| Cc1ccc(S(=O)(=O)Nc2ccccc2C(=O)Nc2nc(-c3ccc(F)cc3)cs2)cc1 | inconclusive: 2.06 µM [falling, full curve, poor fit] |  |
| CCCCCn1c(CCNC(=O)c2cccs2)nc2ccccc21 | inconclusive: 23.1 µM [falling, partial curve] |  |
| CC[n+]1ccc(C)c2cc(SC(F)(F)F)ccc21 | inconclusive: 29.1 µM [activator, single point] |  |
| CCCn1c2ccccc2c2cnn(CC(=O)Nc3cc(C)c(Cl)cc3OC)c(=O)c21 | inconclusive: 23.1 µM [activator, single point] |  |
| C[n+]1c2n(c3ccccc31)N=C(c1ccc(Cl)cc1)CS2 | inconclusive: 2.59 µM [falling, full curve, poor fit] |  |
| Nc1ccccc1SC1CC(=O)N(c2ccc3c(c2)OCCO3)C1=O (centres undefined) | inconclusive: 14.6 µM [activator, partial curve] |  |
| CCN1C(=O)/C(=C\N2CCN(c3ccc(F)cc3)CC2)SC1=S | inconclusive: 2.31 µM [falling, partial curve, poor fit] |  |
| O=C(Nc1cccc(S(=O)(=O)N2CCCCC2)c1)c1ccc2c(=O)n3c(nc2c1)CCCCC3 | inconclusive: 4.11 µM [falling, single point] |  |
| C=C(C)C(=O)Oc1ccc(N=Nc2ccc(C)cc2)ccc1=O | inconclusive: 29.1 µM [falling, single point] |  |
| Cn1c(NCc2ccccc2)cc(=O)n(C)c1=O |  | inactive: 0.494% |
| COC(=O)c1cc2c(=O)c3ccccc3oc2nc1C | inconclusive: 5.17 µM [activator, partial curve] |  |
| Cc1cccc(NC(=S)NCC(C)CSc2ccc(Cl)cc2)c1 (centres undefined) | inconclusive: 29.1 µM [falling, single point] |  |
| CCCCNC(=O)C1CCCN(S(=O)(=O)c2c(C)noc2/C=C/c2cccs2)C1 (centres undefined) | inconclusive: 20.6 µM [falling, single point] |  |
| O=C(NCc1ccncc1)C(=O)NCC(c1ccco1)N1CCN(c2ccc(F)cc2)CC1 (centres undefined) | inconclusive: 11.6 µM [falling, partial curve, poor fit] |  |
| COc1ccc(CN(C)CC(O)COC(c2ccc(OC)cc2)c2ccc(OC)cc2)cc1 (centres undefined) | inconclusive: 29.1 µM [activator, single point] |  |
| O=C(Cn1ncc2c([nH]c3ccccc32)c1=O)NCCCN1CCN(c2ccc(F)cc2)CC1 | inconclusive: 23.1 µM [activator, partial curve] |  |
| O=C(N/N=C/C1CCCCC1)c1ccccn1 | inconclusive: 2.06 µM [activator, single point] |  |
| O=C(Nc1ccn(Cc2ccccc2)n1)c1ccc(F)cc1 | inconclusive: 1.84 µM [activator, partial curve, poor fit] |  |
| CN(CC(=O)Nc1cccc(F)c1)CC(=O)Nc1cc(S(=O)(=O)N2CCOCC2)ccc1Cl | inconclusive: 14.6 µM [falling, partial curve, poor fit] |  |
| Cc1nn(-c2ccccc2)c(NC(=O)c2ccccc2)c1Br | inconclusive: 14.6 µM [activator, partial curve] |  |

| SMILES | Potency | activity change, negative = inhibition |
| --- | --- | --- |
| O=C(NCC1CCCO1)c1cccc2c1C(=O)c1ccc(N3CCC(Cc4ccccc4)CC3)cc1S2(=O)=O (centres undefined) | active: 20.6 µM |  |
| C#CCOCCOCCOCCNc1nc(N2CCN(C(=O)CCCCCCCCCCNC(=O)Cn3cc(CCCCCN)nn3)CC2)nc(N2CCN(C(=O)CCCCCCCCCCNC(=O)[C@H]([C@@H](C)CC)n3cc(CCCCCN)nn3)CC2)n1 | inconclusive: 29.1 µM [falling, single point] |  |
| O=C(NCCCO)c1cc2c([nH]c3ccccc32)c(-c2ccccc2)n1 | inconclusive: 11.6 µM [falling, partial curve, poor fit] |  |
| COc1ccccc1-c1nn2c(-c3ccco3)nnc2s1 | inconclusive: 4.11 µM [activator, full curve, poor fit] |  |
| Cc1ccc(N/C(=C\C(=O)c2ccccc2)C(=O)O)cc1 | inconclusive: 25.9 µM [activator, single point] |  |
| O=C(COc1ccccc1)Nc1cccc2nsnc12 | inconclusive: 14.6 µM [activator, partial curve] |  |
| O=c1cc(-c2ccccc2)[nH]n1-c1nc2ccccc2[nH]1 | inconclusive: 14.1 µM [falling, partial curve] |  |
| O=C(CN1c2cccc3cccc(c23)S1(=O)=O)NC1CCCCC1 | inconclusive: 13 µM [falling, partial curve, poor fit] |  |
| O=Cc1ccc(N2CCCC2)c([N+](=O)[O-])c1 | inconclusive: 11.6 µM [activator, partial curve] |  |
| CN(C)S(=O)(=O)c1cccc(NC(=O)COC(=O)c2cc3ccccc3oc2=O)c1 | inconclusive: 20.6 µM [activator, partial curve] |  |
| CC1CCN(C(=S)c2cn(Cc3ccccc3F)c3ccccc23)CC1 | inconclusive: 14.6 µM [falling, partial curve] |  |
| CCN(C1CCCCC1)S(=O)(=O)CCNC(=O)c1ccc2c(c1)OCO2 |  | inactive: -9.78% |
| O=C(CCc1c[nH]c2ccccc12)NCCOc1ccccc1 | inconclusive: 29.1 µM [activator, single point] |  |
| COc1ccccc1OCCn1c(NC(=O)c2ccccc2Cl)nc2ccccc21 | inconclusive: 29.1 µM [falling, single point] |  |
| Cc1ccc(NC(=O)C(=O)NCC(c2cccnc2)N2CCN(Cc3ccccc3)CC2)cc1C (centres undefined) | inconclusive: 20.6 µM [activator, single point] |  |
| O=C(Nc1ccc2c(c1)OCO2)N1CCN(c2ccccc2Cl)CC1 | inconclusive: 0.092 µM [falling, full curve, poor fit] |  |
| CCOc1ccc(Nc2oc(-c3ccc(COc4ccc(OC)cc4)o3)nc2C#N)cc1 |  | inactive: -11.1% |
| CCS(=O)(=O)c1ccc(C(=O)Nc2ccccc2OC)c(Cl)c1Cl | inconclusive: 10.3 µM [falling, partial curve, poor fit] |  |
| c1ccc(Cn2nnnc2C(c2cccs2)N2CCCCCC2)cc1 (centres undefined) | inconclusive: 23.1 µM [falling, partial curve, poor fit] |  |

Look-ups from the list:
activity change, negative = inhibition with `Cn1c(NCc2ccccc2)cc(=O)n(C)c1=O` reads inactive: 0.494%
Potency with `O=c1cc(-c2ccccc2)[nH]n1-c1nc2ccccc2[nH]1` reads inconclusive: 14.1 µM [falling, partial curve]
